Test results: patent publication US8895739B2, “Acylation of hindered amines and functionalized bis-peptides obtained thereby” (Temple University of the Commonwealth System of Higher …, priority 2008, dated 2014)
Part of at least one peptide drawing is inferred or uncertain, most often the ends. At least one structure is not confirmed: it was looked up by name or label, or the drawing left a doubt.

Protein sequences, listed by entry. Tags and fused reporters are not part of them. Residues count along the entry.
UniProt Q00987, 25-117 limits assumed: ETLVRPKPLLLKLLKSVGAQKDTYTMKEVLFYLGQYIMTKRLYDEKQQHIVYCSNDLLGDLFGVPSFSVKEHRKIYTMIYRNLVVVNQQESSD

Molecular target: T1, HDM2 (Homo sapiens, UniProt Q00987)
T1 construct: in the presence of varying concentrations of HDM225-117
Experiment: direct binding fluorescence polarization assay

Compound: CC(C)CCN1C(=O)[C@@H]2C[C@@]3(CN2C(=O)[C@@]12C[C@H]1C(=O)N(CCc4ccc(Cl)c(Cl)c4)[C@]4(C[C@H]5C(=O)N[C@@H](CCc6ccccc6)C(=O)N5C4)C(=O)N1C2)NC(=O)[C@H](CCCCNC(=S)Nc1ccc2c(c1)C(=O)OC21c2ccc(O)cc2Oc2cc(O)ccc21)NC3=O [Entry 7]
- improvement in binding (dichlorobenzyl group as R2 in place of the natural indole ring): 8 fold

Compound: CC(C)CN1C(=O)[C@@H]2C[C@@]3(CN2C(=O)[C@@]12C[C@H]1C(=O)N(Cc4c[nH]c5ccc(Cl)cc45)[C@]4(C[C@H]5C(=O)N[C@@H](Cc6ccccc6)C(=O)N5C4)C(=O)N1C2)NC(=O)[C@H](CCCCNC(=S)Nc1ccc2c(c1)C(=O)OC21c2ccc(O)cc2Oc2cc(O)ccc21)NC3=O [Entry 4]
- Kd (side-chain screen, all (S) backbone, fluorescein labeled bis-peptide at 10 nM, HDM2 25-117): 14 µM
